PubChem BioAssay AID504834 (National Center for Advancing Translational Sciences (NCATS), 2011)
In all, about 320,000 compounds went through this assay and about 22,000 (6.9%) were called active. The shares of active, inactive and inconclusive entries below differ from those in the screen. Calls come from the whole dose curve; as a rule, active = well fitted inhibition curve with a large enough effect; inconclusive = small, poorly fitted or top-dose-only effect, or another doubt; inactive = no such curve, though single readings can be large or run the other way. Potencies of inconclusive entries are doubtful fits and often do not repeat.
Potency is the fitted concentration of half-maximal effect.

Test: Primary qHTS for delayed death inhibitors of the malarial parasite plastid, 96 hour incubation
Details: P. falciparum luciferase reporter growth; series mostly up to 28.7 µM
In short: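 Parasite growth measured via integrated firefly luciferase reporter in P. falciparum. Infected erythrocytes at 2% hematocrit, 0.05% parasitemia final were treated 96 hours at 37 C under 5% CO2, and luminescence was read.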
With CCc1ccc(NC(=O)CCNC(=O)Cn2ccc3ccccc3c2=O)cc1 the Potency was inconclusive: 9.28 µM [inhibitor, partial curve]. In the case of Cc1cccc(C)c1N1CCN(S(=O)(=O)N(C)C)CC1, the Potency is reported as inconclusive: 18.5 µM [inhibitor, single point]. In the case of O=S(=O)(Nc1ccc(O)c(NS(=O)(=O)c2ccccc2)c1)c1ccccc1, the Potency is reported as “inactive”. For COc1ccccc1CNC(=O)COC(=O)c1ccc(C)s1, the Potency was “inactive”. For COc1ccc2c3c([nH]c2c1)C(C)NCC3 (stereo not drawn), the Potency was inconclusive: 5.22 µM [inhibitor, partial curve, poor fit]. In the case of COc1ccc(CCN(C)C(=O)CCNC(=O)c2ccc(Br)cc2)cc1OC, the Potency is reported as inconclusive: 0.0329 µM [inhibitor, full curve, poor fit]. With Cc1ccc(-c2cnc3ccccc3n2)cc1C the Potency was inconclusive: 18.5 µM [inhibitor, single point]. With O=c1cccc2c1c1cc[nH]c3ccc(=O)n2c31 the Potency was inconclusive: 1.04 µM [inhibitor, partial curve, poor fit]. For COc1ccc(O[C@H]2C=C[C@@H](c3ccccc3)O[C@@H]2COC(=O)CC/C(C)=N/O[C@@H](C)c2cn([C@H](CO)Cc3ccccc3)nn2)cc1, the Potency was inconclusive: 10.4 µM [inhibitor, single point]. With CCCCNC(=S)N/N=C1\C(=O)c2cccc3cccc1c23 the Potency was “inactive”. In the case of O=C(CC(c1ccccc1)c1cc(Cl)ccc1O)N1CCCC1 (stereo not drawn), the Potency is reported as inconclusive: 11.7 µM [inhibitor, single point]. In the case of CC(C)Cc1nc2oc3c(N4CCN(CCO)CC4)ncnc3c2c2c1CCCC2, the Potency is reported as inconclusive: 1.31 µM [inhibitor, partial curve, poor fit]. With COCCN(Cc1nc2ccccc2c(=O)[nH]1)C(=O)COc1cccc(C(C)=O)c1 the Potency was inconclusive: 14.7 µM [inhibitor, single point]. In the case of O=C(CC1SC(N2CCCC2)=NC1=O)Nc1ccc(C(=O)NCCc2ccc(F)cc2)cc1 (stereo not drawn), the Potency is reported as active: 10.4 µM. With O=C(Cc1ccccc1[N+](=O)[O-])Nc1ccc2c(c1)OCCO2 the Potency was inconclusive: 5.86 µM [inhibitor, partial curve, poor fit]. In the case of C1CCCC(N2CCNCC2)CC1, the Potency is reported as active: 2.94 µM. With COc1cc(C(=S)N2CCOCC2)cc(OC)c1OS(=O)(=O)c1ccc(NC(C)=O)cc1 the Potency was active: 13.1 µM. For CCc1ccc(NC(=O)CC2C(=O)Nc3c2c(=O)n(C)c(=O)n3C)cc1 (stereo not drawn), the Potency was inconclusive: 10.4 µM [inhibitor, partial curve, poor fit]. With COCCN(C(=O)COC(=O)CCC1CCCC1)c1c(N)n(Cc2ccccc2)c(=O)[nH]c1=O the Potency was inconclusive: 0.262 µM [inhibitor, full curve, poor fit]. In the case of Nc1nnc(SCc2ccccc2F)s1, the Potency is reported as “inactive”. For CCc1cc2c(CN(C)Cc3ccccc3F)cc(=O)oc2cc1O, the Potency was inconclusive: 3.29 µM [inhibitor, single point]. In the case of COc1c(Cl)cc(Cl)cc1CNc1ccc(S(N)(=O)=O)cc1, the Potency is reported as “inactive”. For CCOCCCNC(=O)c1cn(C)c2ccc(S(=O)(=O)N3CCCCC3)cc2c1=O, the Potency was inconclusive: 13.1 µM [inhibitor, single point]. For CC(C)C(NS(=O)(=O)c1cccc(C(F)(F)F)c1)C(=O)N1CCc2ccccc2C1 (stereo not drawn), the Potency was inconclusive: 10.4 µM [inhibitor, single point]. With COc1ccc(S(=O)(=O)N2CCCN(S(=O)(=O)c3ccc(OC)c(C)c3)CC2)cc1C the Potency was “inactive”. In the case of CCCc1cc(-c2nc(N)ncc2-c2ccc3c(c2)OCCCO3)c(O)cc1OC, the Potency is reported as inconclusive: 1.31 µM [inhibitor, partial curve]. For CC(=O)c1ccc(NC(=S)NCc2cccnc2)cc1, the Potency was inconclusive: 5.86 µM [inhibitor, partial curve, poor fit]. In the case of Cc1ccc(CNS(=O)(=O)c2c(C)[nH]c(C)c2C(=O)N2CCCCC2)o1, the Potency is reported as active: 13.1 µM. With O=c1cc(NCCc2ccccc2)c2ccccc2o1 the Potency was “inactive”. With CC(OC(=O)C1=COCCO1)C(=O)Nc1cc(S(=O)(=O)N2CCCCC2)ccc1Cl (stereo not drawn) the Potency was inconclusive: 0.37 µM [inhibitor, full curve, poor fit]. With COc1ccc(CCC(=O)Nc2sc(C(=O)N(C)C)c(C)c2C#N)cc1 the Potency was inconclusive: 18.5 µM [inhibitor, single point]. For COc1cccc(NC(=O)Nc2nnc(N3C(C)CCCC3C)s2)c1 (stereo not drawn), the Potency was inconclusive: 11.7 µM [inhibitor, single point]. With Cc1cc(C(=O)N2CCCC(C(=O)c3cccc4ccccc34)C2)nc(C)n1 (stereo not drawn) the Potency was inconclusive: 13.1 µM [inhibitor, single point]. For COc1ccc(C(=O)n2c(SC)nc3cc4c(cc32)OCCO4)cc1, the Potency was “inactive”. For O=C(COc1cccc(Cl)c1)NCC(c1cccs1)N1CCOCC1 (stereo not drawn), the Potency was inconclusive: 9.28 µM [inhibitor, partial curve, poor fit]. For Cc1cnc(CNC(=O)c2ccc3oc(Cc4ccc(Cl)cc4)nc3c2)cn1, the Potency was inconclusive: 11.7 µM [inhibitor, single point]. In the case of O=C(CN1CCN(S(=O)(=O)c2ccccc2)CC1)N1CCc2ccccc21, the Potency is reported as active: 11.7 µM. In the case of Cc1cc(=O)oc2cc(OCCSCCN3CCCC3)ccc12, the Potency is reported as inconclusive: 18.5 µM [inhibitor, single point]. With CCN(CC)C(=O)c1ccc(S(=O)(=O)N2CCC(c3nc4ccccc4s3)CC2)cc1 the Potency was inconclusive: 18.5 µM [inhibitor, single point]. With S=C1NC2=C(CCCC2)C2(CCCCC2)N1 the Potency was “inactive”. In the case of Cc1ccc(S(=O)(=O)N2CCN(C(=O)Cn3cnc4c3c(=O)n(C)c(=O)n4C)CC2)cc1C, the Potency is reported as inconclusive: 18.5 µM [inhibitor, single point]. In the case of Cc1cc(C)c(C#N)c(N2CCN(C(=O)C3COc4ccccc4O3)CC2)n1 (stereo not drawn), the Potency is reported as “inactive”. In the case of COc1cc(C)c(C(=O)CSc2nnc(CNC(=O)c3ccco3)n2C)cc1C, the Potency is reported as inconclusive: 18.5 µM [inhibitor, single point].
